Data published in patent US20250019769A1, “REPURPOSING DRUGS FOR NON-SMALL CELL LUNG CANCER” (WEST VIRGINIA UNIVERSITY BOARD OF GOVERNORS ON BEHALF OF …, priority 2021, published 2025).

Test system: human NSCLC epithelial cell lines
Assay: PRISM/GDSC drug response in human NSCLC epithelial cell lines (n=135)
Type: cell-based
Details: NSCLC cells (FIG. 18C)
Text: The PRISM dataset. was obtained from the DepMap portal (https://depmap.org/portal/download/, PRISM repurposing 19Q4, accessed on 1 Apr. 2021). Carboplatin, cisplatin, docetaxel, erlotinib, etoposide, gefitinib, gemcitabine, paclitaxel (Taxol), pemetrexed, and vinorelbine were commonly used chemotherapeutic drugs in NSCLC treatment, the analysis focused on these ten regiments. Drug activity measurements, including IC50, ln(IC50), EC50, and ln(EC50), were used in the analysis. The available CCLE NSCLC cell lines were divided into three groups by the drug activity measurements: sensitive, resistant, and intermediate.
Drug activity measurements were generated in the GDSC Project. (https://www.cancerrxgene.org/downloads/bulk_download, accessed on 15 Apr. 2021). IC50 and ln(IC50) were the main metrics used in this analysis. The available CCLE NSCLC cell lines were divided into three groups by the drug activity measurements in the GDSC1/2 datasets, i.e., sensitive, resistant, and intermediate.

Compound | outliers (IC50 or EC50 higher than 10 μM)
CC(C)c1ccccc1Cc1cc(C(=O)Nc2ccc(S(=O)(=O)c3ccccc3C(C)(C)C)cc2)c(O)c(O)c1O [TW-37] | without any outliers
CO[C@@H](C(=O)N1Cc2n[nH]c(NC(=O)c3ccc(N4CCN(C)CC4)cc3)c2C1)c1ccccc1 [danusertib] | without any outliers
